Reference: PubChem BioAssay AID651768 (National Center for Advancing Translational Sciences (NCATS), 2012)
The whole screen tested about 360,000 compounds, of which about 1,700 (0.47%) were called active. Inconclusive means that the source gave no clear call. Such entries were picked first, then a sample of the others. Calls come from the whole dose curve; as a rule, active = well fitted inhibition curve with a large enough effect; inconclusive = small, poorly fitted or top-dose-only effect; inactive = no such curve, though single readings can be large or run the other way. A potency beside an inconclusive call is a rough fit, not a confirmed value.

Chains of the proteins cited; added tags and fusions are not shown.
UniProt Q14191, whole entry, looked up: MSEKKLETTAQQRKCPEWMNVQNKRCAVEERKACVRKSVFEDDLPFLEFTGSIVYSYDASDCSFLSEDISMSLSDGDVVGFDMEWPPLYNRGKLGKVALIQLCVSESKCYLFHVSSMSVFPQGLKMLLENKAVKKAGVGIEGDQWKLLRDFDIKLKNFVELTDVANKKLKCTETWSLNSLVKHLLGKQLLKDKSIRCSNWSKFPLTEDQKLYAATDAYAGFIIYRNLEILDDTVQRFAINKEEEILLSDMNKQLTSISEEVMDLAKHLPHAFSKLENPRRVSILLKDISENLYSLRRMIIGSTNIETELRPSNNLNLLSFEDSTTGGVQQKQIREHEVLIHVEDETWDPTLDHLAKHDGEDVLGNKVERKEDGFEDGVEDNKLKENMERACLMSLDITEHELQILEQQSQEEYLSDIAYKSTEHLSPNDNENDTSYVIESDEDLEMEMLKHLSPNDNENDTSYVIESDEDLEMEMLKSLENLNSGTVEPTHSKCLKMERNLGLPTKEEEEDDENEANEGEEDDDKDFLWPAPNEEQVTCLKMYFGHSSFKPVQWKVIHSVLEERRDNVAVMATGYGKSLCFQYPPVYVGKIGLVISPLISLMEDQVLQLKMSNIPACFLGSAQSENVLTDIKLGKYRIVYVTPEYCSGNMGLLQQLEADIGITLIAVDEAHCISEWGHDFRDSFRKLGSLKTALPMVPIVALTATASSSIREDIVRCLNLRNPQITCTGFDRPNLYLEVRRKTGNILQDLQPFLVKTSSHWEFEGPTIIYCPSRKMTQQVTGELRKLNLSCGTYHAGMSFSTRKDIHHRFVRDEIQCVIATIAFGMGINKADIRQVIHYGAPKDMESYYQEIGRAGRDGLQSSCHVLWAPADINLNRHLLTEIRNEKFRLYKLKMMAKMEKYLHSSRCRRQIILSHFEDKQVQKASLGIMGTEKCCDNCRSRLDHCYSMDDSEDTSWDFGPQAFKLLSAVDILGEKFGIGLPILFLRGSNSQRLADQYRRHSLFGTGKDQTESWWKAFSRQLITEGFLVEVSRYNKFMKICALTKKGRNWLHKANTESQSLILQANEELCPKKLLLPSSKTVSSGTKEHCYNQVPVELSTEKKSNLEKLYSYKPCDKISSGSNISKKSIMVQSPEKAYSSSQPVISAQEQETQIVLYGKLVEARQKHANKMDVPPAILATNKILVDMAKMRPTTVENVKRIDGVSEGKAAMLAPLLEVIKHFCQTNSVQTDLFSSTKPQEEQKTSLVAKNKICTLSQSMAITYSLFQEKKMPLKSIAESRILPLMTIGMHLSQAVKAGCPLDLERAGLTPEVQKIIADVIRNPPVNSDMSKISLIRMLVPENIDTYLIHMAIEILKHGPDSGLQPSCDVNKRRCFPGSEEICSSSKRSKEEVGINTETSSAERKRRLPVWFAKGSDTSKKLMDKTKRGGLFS

Biological target: Bifunctional 3'-5' exonuclease/ATP-dependent helicase WRN (Homo sapiens) (UniProt Q14191)
Assay: qHTS for Inhibitors of WRN Helicase; note: nearly all actives have a fitted effect of over 55% in size
Conditions: WRN helicase unwinding, fluorescent forked duplex, kinetic; activity change, negative = inhibition: at 114 µM (top of the series) unless noted
In short: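 Primary qHTS, 1536-well format. 20 nM WRN + compound, 15 min RT; start with 100 nM forked fluorophore/quencher duplex, 2 mM ATP (final); kinetic read ex 525/em 598 nm.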
% is set by controls: 0 for no effect and ±100 for the full control effect; potency is the fitted concentration of half-maximal effect.

SMILES | Potency | activity change, negative = inhibition
Cn1cccc1/C=C1\C(=O)NC(=O)N(Cc2ccccc2Cl)C1=O | active: 39.8 µM | 
O=C1NC(=O)C(=Cc2ccc(-c3cc(Cl)ccc3[N+](=O)[O-])o2)C(=O)N1 | inconclusive: 10 µM [inhibitor, partial curve, poor fit] | 
N#Cc1c(/N=C/c2c(O)n(Cc3ccco3)c(=O)[nH]c2=O)sc2c1CCCC2 | active: 56.2 µM | 
CCc1ccc(/C=C(/C#N)C(N)=S)cc1 |  | inactive: -9.2%
COc1ccc(CN2C(=O)NC(=O)/C(=C\c3ccc(OC)c(OC)c3OC)C2=O)cc1 | inconclusive: 50.1 µM [inhibitor, partial curve] | 
COc1cc(/C=C2/C(=O)NC(=O)N(c3ccccc3)C2=O)ccc1O | inconclusive: 50.1 µM [inhibitor, partial curve] | 
CC(=O)CC(c1ccccc1[N+](=O)[O-])c1c(O)c2ccccc2oc1=O (stereo not given) |  | inactive: 8.12%
COc1ccc(OC)c(NP(=O)(Oc2ccc(Cl)cc2)Oc2ccc(Cl)cc2)c1 | inconclusive: 11.2 µM [inhibitor, partial curve] | 
Cn1c(O)c(/C=C/C=Nc2ccccc2)c(=O)n(C)c1=S | active: 31.6 µM | 
C[N+](C)(C)CC#CCOC(=O)Nc1cccc(Cl)c1 |  | inactive: -0.585%
CN(C)c1c([N+](=O)[O-])cc(N2C(=O)C=CC2=O)cc1[N+](=O)[O-] | active: 35.5 µM | 
CC(=O)C(Sc1ncnc2c1nnn2-c1ccc(F)cc1)C(=O)N(C)C (stereo not given) | inconclusive: 56.2 µM [inhibitor, single point] | 
O=C1NC(=S)N(C2CC2)C(=O)/C1=C/c1ccc2c(c1)CCN2CCCCl | active: 2.99 µM | 
Nc1c(C(=O)NCCN2CCOCC2)c2nc3ccccc3nc2n1Cc1ccco1 | inconclusive: 50.1 µM [inhibitor, partial curve] | 
Cc1cc([N+](=O)[O-])ccc1N | inconclusive: 56.2 µM [inhibitor, partial curve, poor fit] | 
O=c1[nH]c(=S)n(C2CC2)c(O)c1/C=N/Nc1ccccc1 | inconclusive: 12.6 µM [inhibitor, partial curve] | 
CCOC(=O)C1CCN(/C=C2/C(=O)NC(=O)N(Cc3ccco3)C2=O)CC1 | inconclusive: 50.1 µM [inhibitor, partial curve] | 
CN1C(=O)NC(=O)/C(=C/c2ccc([N+](=O)[O-])s2)C1=O | inconclusive: 50.1 µM [inhibitor, partial curve] | 
O=C(Cc1ccccc1)N1CCN(Cc2ccc(Cl)cc2)CC1 | inconclusive: 35.5 µM [inhibitor, full curve] | 
Cc1ccc(-c2cc(-c3ccc(C)cc3)[n+](-c3ccc(C(=O)O)cc3)c(-c3ccc(C)cc3)c2)cc1 |  | inactive: 4.23%
O=C(O)Cn1cc(/C=C2\C(=O)NC(=O)N(c3ccc(Cl)cc3)C2=O)c2ccccc21 | inconclusive: 50.1 µM [inhibitor, partial curve] | 
Cc1cc(/C=C2/C(=O)NC(=O)N(Cc3ccco3)C2=O)c(C)n1-c1ccccc1 | inconclusive: 50.1 µM [inhibitor, partial curve] | 
O=C1NC(=O)N(c2cccc(F)c2)C(=O)/C1=C/c1ccc(N2CCOCC2)cc1 |  | inactive: -7.53%
FC(F)(F)c1ccc(CN2CCNCC2)cc1 | inconclusive: 70.8 µM [inhibitor, single point] | 

A few values from the entries so far.
Under Potency, `COc1ccc(CN2C(=O)NC(=O)/C(=C\c3ccc(OC)c(OC)c3OC)C2=O)cc1` shows inconclusive: 50.1 µM [inhibitor, partial curve]
Under Potency, `Nc1c(C(=O)NCCN2CCOCC2)c2nc3ccccc3nc2n1Cc1ccco1` shows inconclusive: 50.1 µM [inhibitor, partial curve]
Under Potency, `Cc1cc([N+](=O)[O-])ccc1N` shows inconclusive: 56.2 µM [inhibitor, partial curve, poor fit]

Next part

SMILES | Potency | activity change, negative = inhibition
O=C1NC(=O)C(=Cc2ccco2)C(=O)N1 | inconclusive: 35.5 µM [inhibitor, partial curve] | 
O=C1NC(=O)C(=Cc2c(Cl)cccc2Cl)C(=O)N1 | active: 35.5 µM | 
COc1ccc(CC2C(=O)N(C)C(=O)N(C)C2=O)c(OC)c1 | inconclusive: 39.8 µM [inhibitor, partial curve] | 
Cc1cccc(N2C(=O)/C(=C/N3CCN(C(=O)c4ccco4)CC3)C(=O)NC2=S)c1 | inconclusive: 79.4 µM [inhibitor, single point] | 
CCc1ccc(N2C(=O)NC(=O)/C(=C\C=C\c3ccco3)C2=O)cc1 | inconclusive: 50.1 µM [inhibitor, partial curve] | 
COc1ccc(CN2C(=O)NC(=O)/C(=C\c3cccc(OC)c3OC)C2=O)cc1 | inconclusive: 39.8 µM [inhibitor, single point] | 
C=CCN1C(=O)NC(=O)/C(=C/c2ccoc2)C1=O | active: 50.1 µM | 
CC(C)n1c(O)c(C2c3cc(Cl)ccc3Oc3[nH]c(=O)n(C(C)C)c(=O)c32)c(=O)[nH]c1=O (stereo not given) | active: 35.5 µM | 
O=C1NC(=O)C(=Cc2cc(Cl)ccc2OCc2ccc(C(=O)O)cc2)C(=O)N1 |  | inactive: -8.54%
CC1=C(O)C(=O)C=C2C1=CC=C1C2(C)CCC2(C)C3CC(C)(C(=O)O)CCC3(C)CCC12C (stereo not given) | active: 25.1 µM | 
COC(=O)C1=Nc2ccccc2/C1=C\c1c(O)n(-c2ccc(OC)cc2)c(=O)[nH]c1=O | inconclusive: 70.8 µM [inhibitor, single point] | 
CN1C(=O)C(=Cc2cn(CC(=O)N3CCCC3)c3ccccc23)C(=O)N(C)C1=O |  | inactive: -2.17%
C=CCN1C(=O)NC(=O)/C(=C/c2ccc(OC)c(CSc3ccccn3)c2)C1=O | inconclusive: 50.1 µM [inhibitor, partial curve] | 
Cc1onc(-c2ccccc2Cl)c1C(=O)NCc1ccc2c(c1)cc(C)n2C | inconclusive: 20 µM [inhibitor, full curve] | 
O=[N+]([O-])c1ccc(Sc2nc3ccccc3o2)c([N+](=O)[O-])c1 | inconclusive: 9.47 µM [inhibitor, partial curve] | 
CCOc1ccccc1N1C(=O)NC(=O)/C(=C/c2ccc3c4c(cccc24)CC3)C1=O | active: 50.1 µM | 
CC(C)c1ccc(N2C(=O)NC(=O)/C(=C/c3cnc(-c4ccccc4)nc3)C2=O)cc1 | active: 50.1 µM | 
Cc1ccc(N2C(=O)/C(=C/c3ccc(CN(CCC#N)S(C)(=O)=O)o3)C(=O)NC2=S)cc1 | active: 50.1 µM | 
CCCCN1C(=O)/C(=C\c2ccco2)C(=O)N(CCc2ccccc2)C1=O | active: 31.6 µM | 
C=Cc1cc(OC)c2c(c1)c(=O)oc1c2cc(OC)c2c(O)ccc(C3OC(C)C(O)C(C)(O)C3O)c21 (stereo not given) | active: 10 µM | 
Cc1ccsc1/C=N/NC(=O)c1cccc(S(=O)(=O)Nc2ccccc2Cl)c1 | inconclusive: 39.8 µM [inhibitor, full curve, poor fit] | 
CCCNC1=C(C)C(=O)C2=C(C1=O)C(COC(N)=O)[C@]1(OC)C3NC3CN21 (stereo not given in full) | inconclusive: 56.2 µM [inhibitor, partial curve] | 
CCOc1cccc(=NC2CCCCC2)c2c(C)n(C)c(C)c12 | inconclusive: 25.1 µM [inhibitor, partial curve] | 
COc1ccccc1C=C1C(=O)NC(=S)NC1=O | inconclusive: 39.8 µM [inhibitor, partial curve, poor fit] | 

SMILES | Potency | activity change, negative = inhibition
COc1ccc(CN2C(=O)NC(=O)/C(=C/c3ccc([N+](=O)[O-])s3)C2=O)cc1 | active: 39.8 µM | 
COc1cc(N2CCOCC2)ccc1/C=C1\C(=O)NC(=O)N(Cc2cccs2)C1=O | active: 50.1 µM | 
CC1Oc2cc3c(-c4c(O)cc(O)c5c(O)c6c(cc45)OC(C)C(C)C6=O)c(O)cc(O)c3c(O)c2C(=O)C1C (stereo not given) | active: 63.1 µM | 
O=C(N/N=C/c1c(O)n(C2CC2)c(=S)[nH]c1=O)c1ccccc1O |  | inactive: -21%
O=c1nc(/C=C/c2ccc(Cl)cc2Cl)cc(C(F)(F)F)[nH]1 | active: 50.1 µM | 
C=CCN1C(=O)NC(=O)C(Cc2ccc(OC)c(OC)c2)C1=O (stereo not given) | inconclusive: 15 µM [inhibitor, partial curve] | 
CCC(C)n1c(O)c(C=Nc2cccc(C(F)(F)F)c2)c(=O)[nH]c1=S (stereo not given) | inconclusive: 39.8 µM [inhibitor, single point] | 
O=C1NC(=O)N(Cc2ccco2)C(=O)/C1=C/c1ccc(-c2cccc([N+](=O)[O-])c2)o1 | active: 22.4 µM | 
CCCCCCC[n+]1ccc(-c2cc[n+](CCCCCCC)cc2)cc1 |  | inactive: -3.76%
Cc1ccc(/C=C2\C(=O)NC(=S)N(c3ccc(F)cc3)C2=O)o1 | inconclusive: 56.2 µM [inhibitor, partial curve] | 
O=C1NC(=O)C(=Cc2ccccc2Oc2ccc(F)cc2)C(=O)N1 | active: 31.6 µM | 
COc1cc(/C=C2\C(=O)NC(=O)N(c3ccccc3)C2=O)cc(OC)c1OC | active: 50.1 µM | 
CCOc1cccc(N2C(=O)/C(=C/c3ccco3)C(=O)NC2=S)c1 | active: 35.5 µM | 
CN(C)c1ccc([N+](=O)[O-])c([N+](=O)[O-])c1 |  | inactive: -0.393%
CCOc1cc(C=C2C(=O)NC(=O)NC2=O)ccc1OS(=O)(=O)c1ccccc1 | active: 44.7 µM | 
CCCCn1c(NC(=O)c2ccco2)c(C(=O)OCC)c2nc3ccccc3nc21 | inconclusive: 39.8 µM [inhibitor, partial curve] | 
CCN1CCN(c2ccc(NC(=O)C(C)C)cc2Cl)CC1 |  | inactive: -4.77%
CN1C(=O)C(=Cc2sc(=O)n(-c3ccccc3)c2N(C)C)C(=O)N(C)C1=O | inconclusive: 7.94 µM [inhibitor, full curve, poor fit] | 
Nc1ccc2c(c1)Cc1ccccc1-2 |  | inactive: 1.84%
COc1ccc(CN2C(=O)NC(=O)/C(=C\c3ccco3)C2=O)cc1 | active: 22.4 µM | 
O=C1CC(=O)N(Cc2ccccc2)C(=O)N1 | inconclusive: 15.8 µM [inhibitor, full curve, poor fit] | 
Cc1ccc(-n2c(O)c(/C=C/C=Nc3ccccc3)c(=O)[nH]c2=O)cc1 | inconclusive: 89.1 µM [inhibitor, single point] | 
